Measurements reported in PubChem BioAssay AID1259425 (University of Nebraska Medical Center, 2018).
The deposit covers about 14,000 reagents; shown is a part drawn at random. Some reagents were tested in more than one well and are listed for each. Not all columns of the deposit are shown. The record does not give: the time to read-out.

- Assay: 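Seek colon cancer weak points whose silencing resembles KSR1 loss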 (primary screen)
- Cells: HCT116 human colon cancer cells
- Knock-down reagent: siRNA pool against human genes, 50 nM siRNA
- Detection: 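mRNA of six signature genes measured together by branched-DNA assay after 50 nM siRNA pool, blank removed, divided by geometric mean of two housekeeping genes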
- Reading the numbers: BNIP3L mRNA: higher = more BNIP3L transcript after knockdown; NDRG1 mRNA: higher = more NDRG1 transcript after knockdown; BNIP3 mRNA: higher = more BNIP3 transcript after knockdown; ALDOC mRNA: higher = more ALDOC transcript after knockdown

target | PubChem SID | BNIP3L mRNA, set 1 | NDRG1 mRNA, set 1 | BNIP3 mRNA, set 1 | ALDOC mRNA, set 1
KCNV1 | SID363998801 | 0.154 | 0.173 | 0.211 | 0.0516
ADM (adrenomedullin) | SID363992417 | 0.16 | 0.111 | 0.365 | 0.0457
DDAH2 (DDAH family member 2, ADMA-independent) | SID363998536 | 0.133 | 0.283 | 0.459 | 0.0223
ADAMTS13 (ADAM metallopeptidase with thrombospondin type 1 motif 13) | SID364004589 | 0.104 | 0.0988 | 0.235 | 0.0152
TK2 (thymidine kinase 2) | SID363995582 | 0.18 | 0.221 | 0.476 | 0.0481
GRIK5 (glutamate ionotropic receptor kainate type subunit 5) | SID363993295 | 0.0725 | 0.331 | 0.255 | 0.0209
LPCAT3 (lysophosphatidylcholine acyltransferase 3) | SID363996649 | 0.096 | 0.092 | 0.222 | 0.0467
RNF126 (ring finger protein 126) | SID364000605 | 0.248 | 0.376 | 0.467 | 0.0569
SCGB1A1 (secretoglobin family 1A member 1) | SID363994469 | 0.0717 | 0.144 | 0.259 | 0.032
NUFIP1 (nuclear FMR1 interacting protein 1) | SID363998255 | 0.137 | 0.202 | 0.182 | 0.0255
IFNAR2 (interferon alpha and beta receptor subunit 2) | SID363992161 | 0.0726 | 0.158 | 0.288 | 0.0252
FMO2 (flavin containing dimethylaniline monoxygenase 2) | SID363992722 | 0.102 | 0.142 | 0.381 | 0.0227
GMPS (guanosine monophosphate synthase) | SID363994934 | 0.209 | 0.222 | 0.281 | 0.0176
WSB1 (WD repeat and SOCS box containing 1) | SID364004541 | 0.0567 | 0.251 | 0.349 | 0.0434
SOX18 (SRY-box transcription factor 18) | SID364001057 | 0.126 | 0.16 | 0.234 | 0.024
BDKRB2 (bradykinin receptor B2) | SID363991940 | 0.0776 | 0.156 | 0.332 | 0.00567
BDKRB2 (bradykinin receptor B2) | SID363991940 | 0.134 | 0.212 | 0.277 | 0.0166
GRK1 (G protein-coupled receptor kinase 1) | SID363994083 | 0.0651 | 0.0279 | 0.33 | 0.0135
GRK1 (G protein-coupled receptor kinase 1) | SID363994083 | 0.0883 | 0.112 | 0.368 | 0.0346
DNAH6 (dynein axonemal heavy chain 6) | SID364005221 | 0.0704 | 0.254 | 0.31 | 0.0555
TMEM160 (transmembrane protein 160) | SID364000585 | 0.24 | 1.14 | 0.322 | 0.0274
STRC (stereocilin) | SID364004785 | 0.0853 | 0.105 | 0.434 | 0.00154
HMGB2 (high mobility group box 2) | SID363993335 | 0.0487 | 0.298 | 0.288 | 0.0166
CD63 (CD63 molecule) | SID363992999 | 0.0754 | 0.198 | 0.188 | 0.0131
TAP2 (transporter 2, ATP binding cassette subfamily B member) | SID363991867 | 0.086 | 0.121 | 0.274 | 0.0185
INTS7 (integrator complex subunit 7) | SID363999492 | 0.0741 | 1.1 | 0.296 | 0.195
IFNA7 (interferon alpha 7) | SID364001978 | 0.135 | 0.0669 | 0.262 | 0.0157
MSH6 (mutS homolog 6) | SID363991515 | 0.159 | 0.0982 | 0.21 | 0.0077
HDGFL2 (HDGF like 2) | SID364004102 | 0.144 | 0.278 | 0.353 | 0.0593
PDLIM4 (PDZ and LIM domain 4) | SID363994762 | 0.0872 | 0.109 | 0.215 | 0.00595
ANKHD1 (ankyrin repeat and KH domain containing 1) | SID364000494 | 0.139 | 0.164 | 0.28 | 0.0328
FERMT3 (FERM domain containing kindlin 3) | SID364003652 | 0.159 | 0.382 | 0.333 | 0.072
TMEM135 (transmembrane protein 135) | SID364002607 | 0.222 | 0.146 | 0.294 | 0.0279
MALT1 (MALT1 paracaspase) | SID363997554 | 0.189 | 0.9 | 0.426 | 0.0172

4 entries from above, limited to “BNIP3 mRNA, set 1”:
HDGFL2 (HDGF like 2) [SID364004102]: 0.353
PDLIM4 (PDZ and LIM domain 4) [SID363994762]: 0.215
ANKHD1 (ankyrin repeat and KH domain containing 1) [SID364000494]: 0.28
FERMT3 (FERM domain containing kindlin 3) [SID364003652]: 0.333
